Measurements from US20250057837A1, “Methods for Treating HCV” (priority 2015, published 2025).
Some results were stated once for a whole list of compounds, not compound by compound.

Assay: Phase 1 drug-drug interaction with sofosbuvir in healthy subjects
Conditions: coadministration with sofosbuvir 400 mg QD

SMILES	exposures, difference [%]
COC(=O)N[C@H](C(=O)N1CCC[C@H]1c1nc2cc([C@H]3CC[C@H](c4cc5nc([C@@H]6CCCN6C(=O)[C@@H](NC(=O)OC)[C@@H](C)OC)[nH]c5cc4F)N3c3cc(F)c(N4CCC(c5ccc(F)cc5)CC4)c(F)c3)c(F)cc2[nH]1)[C@@H](C)OC [Compound 2]	≤ 16
CC(C)(C)[C@@H]1NC(=O)O[C@@H]2CCC[C@H]2OC/C=C/C(F)(F)c2nc3ccccc3nc2O[C@@H]2C[C@@H](C(=O)N[C@]3(C(=O)NS(=O)(=O)C4(C)CC4)C[C@H]3C(F)F)N(C2)C1=O [Compound 1]	≤ 16
